Assay [1] concerns the target in vitro translated full-length NR2B (Rattus norvegicus (Rat)) (UniProt Q00960). In words: co-immunoprecipitation of in vitro translated proteins with anti-HA.
Assay [2] deals with native rat NR2B subunit of the NMDA receptor (rat) (UniProt Q00960). The assay can be described thus: summary of the co-immunoprecipitation and in vitro binding experiments.
Assay [3] has the same target. In words: co-immunoprecipitation of native proteins.
The target in assay [4] is GFP-rat NR2B (full-length, expressed in HEK293T cells) (rat) (UniProt Q00960). The assay can be described thus: co-immunoprecipitation from co-transfected HEK293T cells.

The chains behind the UniProt entries cited, without tags or fusion partners. Where a name states a change or a piece, a line headed by the entry shows the natural chain unless it says otherwise.
UniProt Q00960: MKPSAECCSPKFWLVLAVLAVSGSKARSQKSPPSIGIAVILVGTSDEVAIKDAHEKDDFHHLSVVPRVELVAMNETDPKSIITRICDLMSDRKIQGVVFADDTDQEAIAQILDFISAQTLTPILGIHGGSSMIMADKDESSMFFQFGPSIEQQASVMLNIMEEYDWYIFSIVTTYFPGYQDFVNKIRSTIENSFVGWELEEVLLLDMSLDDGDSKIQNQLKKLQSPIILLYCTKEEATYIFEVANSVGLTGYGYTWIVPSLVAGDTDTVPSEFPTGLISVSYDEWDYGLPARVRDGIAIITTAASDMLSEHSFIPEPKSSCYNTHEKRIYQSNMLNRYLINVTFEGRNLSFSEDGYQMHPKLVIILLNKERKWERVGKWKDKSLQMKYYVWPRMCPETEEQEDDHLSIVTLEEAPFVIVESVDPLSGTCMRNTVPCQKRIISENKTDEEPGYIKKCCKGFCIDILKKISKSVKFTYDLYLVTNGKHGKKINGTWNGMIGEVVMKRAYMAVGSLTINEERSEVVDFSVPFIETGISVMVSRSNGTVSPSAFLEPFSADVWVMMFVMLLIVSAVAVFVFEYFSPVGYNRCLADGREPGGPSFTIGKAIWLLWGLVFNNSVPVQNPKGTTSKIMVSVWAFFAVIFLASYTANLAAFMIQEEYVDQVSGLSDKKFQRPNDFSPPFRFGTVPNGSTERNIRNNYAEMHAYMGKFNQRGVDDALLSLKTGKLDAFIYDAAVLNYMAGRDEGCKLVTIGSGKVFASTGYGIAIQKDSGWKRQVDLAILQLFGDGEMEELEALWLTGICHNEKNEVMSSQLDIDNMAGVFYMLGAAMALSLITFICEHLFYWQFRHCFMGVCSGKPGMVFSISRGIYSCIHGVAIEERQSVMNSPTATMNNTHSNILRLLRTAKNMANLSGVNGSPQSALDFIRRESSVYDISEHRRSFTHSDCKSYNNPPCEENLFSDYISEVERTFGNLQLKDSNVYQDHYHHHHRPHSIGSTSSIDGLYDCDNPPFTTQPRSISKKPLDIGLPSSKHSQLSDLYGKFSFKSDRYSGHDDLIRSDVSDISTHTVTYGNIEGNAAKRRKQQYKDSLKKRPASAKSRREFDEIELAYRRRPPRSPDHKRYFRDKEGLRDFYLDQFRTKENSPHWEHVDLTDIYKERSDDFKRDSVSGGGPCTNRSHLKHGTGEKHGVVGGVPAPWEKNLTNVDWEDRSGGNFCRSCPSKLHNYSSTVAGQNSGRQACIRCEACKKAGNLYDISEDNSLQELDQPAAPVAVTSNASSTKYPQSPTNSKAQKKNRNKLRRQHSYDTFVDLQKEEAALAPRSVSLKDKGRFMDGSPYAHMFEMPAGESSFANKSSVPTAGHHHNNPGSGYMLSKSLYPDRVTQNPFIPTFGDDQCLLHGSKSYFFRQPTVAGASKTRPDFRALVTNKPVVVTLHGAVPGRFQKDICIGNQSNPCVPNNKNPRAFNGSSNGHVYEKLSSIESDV

Our source for the binding values is patent US20060035283A1.

No constants are given. Whether binding was seen depends on the method and setting. In cells and extracts the contact can be indirect. Some binding calls cover weakened binding; strength is not graded here. For some assays here: Sequences can lack the tags named with a protein.

B1: HA-tagged RasGRF1 fragment, amino acids 714-1244 (protein, not shown: small tags and cut ends)
chain: RASRKFSSPPPLAIGTSSPVRRRKLSLNIPIITGGKALELASLGCPSDGYTNIHSPISPFGKTTLDTSKLCVASSLTRTPEEIDMTTLEESSGFRKPTSDILKEESDDDQSDVDDTEVSPPTPKSFRNRITQEFPLFNYNSGIMMTCRDLMDSNRSPLSATSAFAIATAGANESPANKEIYRRMSLANTGYSSDQRNIDKEFVIRRAATNRVLNVLRHWVTKHSQDFETDDLLKYKVICFLEEVMHDPDLLPQERKAAANIMRTLTQEEITENHSMLDELLLMTEGVKTEPFENHSAMEIAEQLTLLDHLVFKSIPYEEFFGQGWMKADKNERTPYIMKTTRHFNHISNLIASEILRNEEVSARASTIEKWVAVADICRCLHNYNAVLEITSSINRSAIFRLKKTWLKVSKQTKSLFDKLQKLVSSDGRFKNLRETLRNCDPPCVPYLGMYLTDLAFLEEGTPNYTEDGLVNFSKMRMISHIIREIRQFQQTTYKIEPQPKVTQYLVDETFVLDDESLYEASLRIEPKLPT
In the case of B1, the binding result in assay [1] is on record as “binds”.

B2: native rat Ras-GRF1 (protein)
chain: MQKAIRLNDGHVVSLGLLAQRDGTRKGYLSKRSSDNPKWQTKWFALLQNLLFYFESDSSSRPSGLYLLEGSICKRMPSPKRGTSSKESDKQHHYFTVNFSNDSQKSLELRTDDSKDCDEWVAAIARASYKILATEHEALMQKYLHLLQVVETEKTVAKQLRQQLEDGEVEIERLKAEIANLIKDNERIQSNQLVAPEDEDSDIKKIKKVQSFLRGWLCRRKWKNIIQDYIRSPHADSMRKRNQVVFSMLEAEAEYVQQLHILVNNFLRPLRMAASSKKPPITHDDVSSIFLNSETIMFLHQIFYQGLKARIASWPTLVLADLFDILLPMLNIYQEFVRNHQYSLQILAHCKQNRDFDKLLKQYEAKPDCEERTLETFLTYPMFQIPRYILTLHELLAHTPHEHVERNSLDYAKSKLEELSRVMHDEVSETENIRKNLAIERMITEGCEILLDTSQTFVRQGSLIQVPMSEKGKINKGRLGSLSLKKEGERQCFLFSKHLIICTRGSGSKLHLTKNGVISLIDCTLLDDPENMDDDGKGQEVDHLDFKIWVEPKDSPPFTVILVASSRQEKAAWTSDIIQCVDNIRCNGLMMNAFEENSKVTVPQMIKSDASLYCDDVDIRFSKTMNSCKVLQIRYASVERLLERLTDLRFLSIDFLNTFLHSYRVFTDAVVVLDKLISIYKKPITAIPARSLELLFSSSHNTKLLYGDAPKSPRASRKFSSPPPLAIGTSSPVRRRKLSLNIPIITGGKALELASLGCPSDGYTNIHSPISPFGKTTLDTSKLCVASSLTRTPEEIDMTTLEESSGFRKPTSDILKEESDDDQSDVDDTEVSPPTPKSFRNRITQEFPLFNYNSGIMMTCRDLMDSNRSPLSATSAFAIATAGANESPANKEIYRRMSLANTGYSSDQRNIDKEFVIRRAATNRVLNVLRHWVTKHSQDFETDDLLKYKVICFLEEVMHDPDLLPQERKAAANIMRTLTQEEITENHSMLDELLLMTEGVKTEPFENHSAMEIAEQLTLLDHLVFKSIPYEEFFGQGWMKADKNERTPYIMKTTRHFNHISNLIASEILRNEEVSARASTIEKWVAVADICRCLHNYNAVLEITSSINRSAIFRLKKTWLKVSKQTKSLFDKLQKLVSSDGRFKNLRETLRNCDPPCVPYLGMYLTDLAFLEEGTPNYTEDGLVNFSKMRMISHIIREIRQFQQTTYKIEPQPKVTQYLVDETFVLDDESLYEASLRIEPKLPT
Turning to B2, the binding result in assay [2] and in assay [3] was “binds” in each case.

B3: full-length mouse RasGRF1 (protein, UniProt P27671 1-1262, looked up)
chain: MQKAIRLNDGHVVTLGLLAQKDGTRKGYLSKRSADNPKWQTKWFALLQNLLFYFESDSSPRPSGLYLLEGSICKRAPSPKRGTSSKESGEKQQHYFTVNFSNDSQKTLELRTEDAKDCDEWVAAIARASYKILATEHEALMQKYLHLLQVVETEKTVAKQLRQQLEDGEVEIERLKTEVTITNLIKDNDRIQSSNKAGSADDEDSDIKKIKKVQSFLRGWLCRRKWKNIIQDYIRSPHADSMRKRNQVVFSMLEAEAEYVQQLHILVNNFLRPLRMAASSKKPPITHDDVSSIFLNSETIMFLHQIFYQGLKARISSWPTLVLADLFDILLPMLNIYQEFVRNHQYSLQILAHCKQNRDFDKLLKQYEAKPDCEERTLETFLTYPMFQIPRYILTLHELLAHTPHEHVERNSLDYAKSKLEELSRIMHDEVSETENIRKNLAIERMITEGCEILLDTSQTFVRQGSLMQMSLSEKSKSSRGRLGSLSTKKEGERQCFLFSKHLIICTRGSGGKLHLTKNGVISLIDCTLLDEPENLDDEAKGAGPEIEHLEFKIGVEPKDSLPFTVILVASTRQEKAAWTSDIIQCVDNIRCNGLMMNAFEENSKVTVPQMIKSDASLYCDDVDIRFSKTMNSCKVLQIRYASVERLLERLTDLRFLSIDFLNTFLHSYRVFTNAMVVLDKLINIYRKPMSAIPARSLELLFSSSHNAKLLYGDAPKSPRASRKFSSPPPLAIGTSSPSRRRKLSLNIPIITGGKALELASLGCSSDSYANIHSPISPFGKTTLDTGKLCMASSLPKTPEEIDVPATIPEKPGELSASRKHSSDVLKEESEDDQNHSDEDNTEVSPVKSPPTPKSFLNRTITEFPFFNYNNGILMTTCRDLVDNNRSTLSATSAFAIATAGANEGPSNKEVFRRMSLANTGFSSDQRNIDKEFVIRRAATNRVLNVLRHWVTKHTQDFDTDDTLKYRVICFLEEVMHDPDLLTQERKAAANIIRTLTLEETTEQHSMLEEVILMTEGVKTEPFENHPALEIAEQLTLLDHLVFKSIPYEEFFGQGWMKAEKYERTPYIMKTTKHFNHVSNFIASEIIRNEDISARASAIEKWVAVADICRCLHNYNAVLEITSSINRSAIFRLKKTWLKVSKQTKSLLDKLQKLVSSDGRFKNLRESLRNCDPPCVPYLGMYLTDLVFIEEGTPNYTEDGLVNFSKMRMISHIIREIRQFQQTTYKIDPQPKVIQYLLDESFMLDEESLYESSLLIEPKLPT
B3: in assay [4], the binding result was “binds”.

B4: HA-tagged RasGRF1 fragment, amino acids 714-913 (protein, not shown: small tags and cut ends)
chain: RASRKFSSPPPLAIGTSSPVRRRKLSLNIPIITGGKALELASLGCPSDGYTNIHSPISPFGKTTLDTSKLCVASSLTRTPEEIDMTTLEESSGFRKPTSDILKEESDDDQSDVDDTEVSPPTPKSFRNRITQEFPLFNYNSGIMMTCRDLMDSNRSPLSATSAFAIATAGANESPANKEIYRRMSLANTGYSSDQRNIDK
Turning to B4, in assay [1], the binding entry is “binds”.
